Measurements from article PMC6109146.
No constants are given. Whether binding was seen depends on the method and setting. In cells and extracts the contact can be indirect. Some binding calls cover weakened binding; strength is not graded here.

Sequences of proteins named here, by UniProt entry; tags and fusion partners are left off.
UniProt Q04207: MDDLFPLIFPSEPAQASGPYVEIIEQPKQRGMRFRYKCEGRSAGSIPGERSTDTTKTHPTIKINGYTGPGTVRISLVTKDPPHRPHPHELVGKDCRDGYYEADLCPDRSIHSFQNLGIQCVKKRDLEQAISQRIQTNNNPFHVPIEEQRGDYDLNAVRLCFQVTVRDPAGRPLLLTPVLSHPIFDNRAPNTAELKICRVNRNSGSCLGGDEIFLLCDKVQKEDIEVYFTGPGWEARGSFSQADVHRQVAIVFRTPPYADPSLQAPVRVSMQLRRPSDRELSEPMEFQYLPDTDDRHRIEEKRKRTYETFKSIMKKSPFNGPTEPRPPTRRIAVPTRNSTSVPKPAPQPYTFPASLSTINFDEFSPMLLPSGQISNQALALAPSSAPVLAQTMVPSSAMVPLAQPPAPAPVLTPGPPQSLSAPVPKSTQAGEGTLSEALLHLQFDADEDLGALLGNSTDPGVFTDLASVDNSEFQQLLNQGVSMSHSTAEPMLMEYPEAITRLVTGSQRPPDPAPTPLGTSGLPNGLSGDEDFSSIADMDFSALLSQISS

Biological target: T1, SIN3 transcription regulator family member A (UniProt Q60520)
T1 sequence: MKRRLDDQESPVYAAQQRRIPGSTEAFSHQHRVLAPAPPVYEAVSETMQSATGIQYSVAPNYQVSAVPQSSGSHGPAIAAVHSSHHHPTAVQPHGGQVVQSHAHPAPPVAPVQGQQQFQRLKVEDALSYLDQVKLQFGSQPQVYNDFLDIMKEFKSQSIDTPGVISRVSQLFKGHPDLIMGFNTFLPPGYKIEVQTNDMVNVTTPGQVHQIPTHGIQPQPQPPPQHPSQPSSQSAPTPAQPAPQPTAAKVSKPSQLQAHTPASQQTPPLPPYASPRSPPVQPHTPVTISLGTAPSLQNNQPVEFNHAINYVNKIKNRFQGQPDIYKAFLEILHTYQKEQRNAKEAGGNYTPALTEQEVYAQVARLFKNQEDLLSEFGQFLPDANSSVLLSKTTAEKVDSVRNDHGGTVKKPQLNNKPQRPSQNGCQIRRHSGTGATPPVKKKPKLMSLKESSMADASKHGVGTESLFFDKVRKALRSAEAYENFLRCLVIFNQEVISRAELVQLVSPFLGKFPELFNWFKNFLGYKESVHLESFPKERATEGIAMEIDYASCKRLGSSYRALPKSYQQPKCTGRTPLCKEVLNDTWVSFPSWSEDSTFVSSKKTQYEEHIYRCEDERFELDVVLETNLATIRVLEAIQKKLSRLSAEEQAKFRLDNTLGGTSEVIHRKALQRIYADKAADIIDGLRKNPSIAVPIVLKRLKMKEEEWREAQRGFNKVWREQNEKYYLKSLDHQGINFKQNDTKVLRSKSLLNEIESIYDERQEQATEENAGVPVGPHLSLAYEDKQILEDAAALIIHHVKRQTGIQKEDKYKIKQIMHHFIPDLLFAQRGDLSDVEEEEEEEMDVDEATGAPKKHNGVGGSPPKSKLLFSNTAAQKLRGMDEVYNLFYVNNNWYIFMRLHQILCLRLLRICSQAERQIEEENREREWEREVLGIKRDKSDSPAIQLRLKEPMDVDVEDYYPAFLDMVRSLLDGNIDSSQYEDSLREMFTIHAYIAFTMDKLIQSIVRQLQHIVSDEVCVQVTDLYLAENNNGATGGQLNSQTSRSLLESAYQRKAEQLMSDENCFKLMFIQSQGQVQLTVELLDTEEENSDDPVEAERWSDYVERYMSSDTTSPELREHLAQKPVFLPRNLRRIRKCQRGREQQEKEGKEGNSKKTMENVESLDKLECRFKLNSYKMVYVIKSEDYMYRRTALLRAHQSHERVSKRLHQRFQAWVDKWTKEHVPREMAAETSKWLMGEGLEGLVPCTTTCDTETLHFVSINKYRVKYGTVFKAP
Test: co-IP; no method section for this experiment; the author contributions say that co-immunoprecipitations were performed; cells, bait and conditions not told (Supplementary Fig. 5E)

binding: binds
Substance: p65 (from UniProt Q04207 1-549)
